± gives the standard deviation of the averaged measurements. The list shows a part of the results, in another mix than the full data. Small differences around the control level are noise.
Compound: Nc1ncnc2c1ncn2[C@@H]1O[C@H](COP(=O)(O)OP(=O)(O)OP(=O)(O)O)[C@@H](O)[C@H]1O [adenosine triphosphate]
Assay: NP40-soluble protein abundance relative to vehicle (solubility fold change) (ratio); higher = more soluble protein in presence of ATP
Method in brief: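 Data come from three independent experiments in which Dounce-homogenised Jurkat crude lysate was treated at eight concentrations from 0.1 to 10 mM. Treatment ran 10 min at room temperature and then 3 min at 37 °C, after which 0.8% NP40 and benzonase were added for 60 min at 4 °C before ultracentrifugation. The supernatant underwent TMT labelling and LC-MS/MS, and vsn-normalised intensities were expressed as fold change against the detergent-processed vehicle in each replicate.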

Protein sequences, listed by entry. Tags and fused reporters are not part of them. Lines headed by an entry give the natural chain unless they say otherwise; changes in a name come on top.
UniProt Q92664: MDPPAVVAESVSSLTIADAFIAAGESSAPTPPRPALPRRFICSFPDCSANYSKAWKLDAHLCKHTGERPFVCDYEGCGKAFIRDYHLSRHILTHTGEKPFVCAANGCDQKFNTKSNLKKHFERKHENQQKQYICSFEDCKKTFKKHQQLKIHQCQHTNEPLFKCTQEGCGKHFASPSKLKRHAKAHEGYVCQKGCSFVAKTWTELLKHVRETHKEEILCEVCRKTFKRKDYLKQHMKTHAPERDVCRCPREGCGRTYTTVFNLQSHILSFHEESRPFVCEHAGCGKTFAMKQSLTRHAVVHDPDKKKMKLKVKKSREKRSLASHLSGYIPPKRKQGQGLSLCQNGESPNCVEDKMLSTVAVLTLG
UniProt E9PIB1: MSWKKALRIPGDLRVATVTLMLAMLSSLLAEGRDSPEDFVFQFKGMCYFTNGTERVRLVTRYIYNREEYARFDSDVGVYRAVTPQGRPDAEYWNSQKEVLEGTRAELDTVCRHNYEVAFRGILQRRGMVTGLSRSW
UniProt O75832: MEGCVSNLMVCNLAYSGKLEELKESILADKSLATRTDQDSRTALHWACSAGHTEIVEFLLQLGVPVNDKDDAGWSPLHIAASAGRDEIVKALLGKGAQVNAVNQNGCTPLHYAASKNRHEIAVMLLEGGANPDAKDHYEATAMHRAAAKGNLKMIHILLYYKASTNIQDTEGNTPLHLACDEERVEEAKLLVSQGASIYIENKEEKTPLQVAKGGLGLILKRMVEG
UniProt P25686: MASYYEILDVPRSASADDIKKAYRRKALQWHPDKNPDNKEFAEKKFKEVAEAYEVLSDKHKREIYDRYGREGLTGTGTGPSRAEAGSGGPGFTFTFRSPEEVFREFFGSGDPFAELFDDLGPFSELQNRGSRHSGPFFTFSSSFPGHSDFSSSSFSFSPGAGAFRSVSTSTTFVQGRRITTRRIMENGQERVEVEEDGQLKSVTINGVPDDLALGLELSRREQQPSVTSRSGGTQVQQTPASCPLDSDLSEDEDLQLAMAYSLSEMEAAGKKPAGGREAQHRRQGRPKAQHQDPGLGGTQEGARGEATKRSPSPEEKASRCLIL
UniProt Q96HP4: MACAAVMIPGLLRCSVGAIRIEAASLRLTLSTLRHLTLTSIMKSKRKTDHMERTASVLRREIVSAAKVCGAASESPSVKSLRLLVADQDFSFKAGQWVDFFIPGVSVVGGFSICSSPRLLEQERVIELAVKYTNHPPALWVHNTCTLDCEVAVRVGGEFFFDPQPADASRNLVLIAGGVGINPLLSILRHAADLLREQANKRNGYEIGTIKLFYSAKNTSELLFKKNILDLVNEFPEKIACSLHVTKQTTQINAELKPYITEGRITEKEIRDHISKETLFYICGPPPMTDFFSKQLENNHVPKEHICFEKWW
UniProt Q12857, whole entry: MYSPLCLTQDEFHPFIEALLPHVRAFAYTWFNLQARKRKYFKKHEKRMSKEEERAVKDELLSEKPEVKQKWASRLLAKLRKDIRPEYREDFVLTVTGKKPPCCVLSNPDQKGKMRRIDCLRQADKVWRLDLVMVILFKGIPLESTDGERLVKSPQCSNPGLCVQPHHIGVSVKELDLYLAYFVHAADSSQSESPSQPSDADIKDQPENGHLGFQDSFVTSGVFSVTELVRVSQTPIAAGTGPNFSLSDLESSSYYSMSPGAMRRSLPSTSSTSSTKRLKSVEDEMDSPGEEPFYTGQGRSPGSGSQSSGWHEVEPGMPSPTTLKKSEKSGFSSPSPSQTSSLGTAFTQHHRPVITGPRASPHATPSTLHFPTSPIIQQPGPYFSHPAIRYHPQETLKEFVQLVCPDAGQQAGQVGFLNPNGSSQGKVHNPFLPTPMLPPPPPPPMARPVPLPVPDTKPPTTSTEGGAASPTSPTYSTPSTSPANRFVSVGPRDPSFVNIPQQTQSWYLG
UniProt A0PK00: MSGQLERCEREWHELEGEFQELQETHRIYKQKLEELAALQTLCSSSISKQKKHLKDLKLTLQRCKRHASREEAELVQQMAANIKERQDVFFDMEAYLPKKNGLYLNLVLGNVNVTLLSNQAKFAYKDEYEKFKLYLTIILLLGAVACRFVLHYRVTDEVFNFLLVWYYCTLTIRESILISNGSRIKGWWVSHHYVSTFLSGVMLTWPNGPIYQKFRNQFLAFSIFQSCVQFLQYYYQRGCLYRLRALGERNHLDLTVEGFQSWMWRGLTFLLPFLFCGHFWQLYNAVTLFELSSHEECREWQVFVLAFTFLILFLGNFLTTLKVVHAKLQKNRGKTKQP
UniProt Q9UKS7: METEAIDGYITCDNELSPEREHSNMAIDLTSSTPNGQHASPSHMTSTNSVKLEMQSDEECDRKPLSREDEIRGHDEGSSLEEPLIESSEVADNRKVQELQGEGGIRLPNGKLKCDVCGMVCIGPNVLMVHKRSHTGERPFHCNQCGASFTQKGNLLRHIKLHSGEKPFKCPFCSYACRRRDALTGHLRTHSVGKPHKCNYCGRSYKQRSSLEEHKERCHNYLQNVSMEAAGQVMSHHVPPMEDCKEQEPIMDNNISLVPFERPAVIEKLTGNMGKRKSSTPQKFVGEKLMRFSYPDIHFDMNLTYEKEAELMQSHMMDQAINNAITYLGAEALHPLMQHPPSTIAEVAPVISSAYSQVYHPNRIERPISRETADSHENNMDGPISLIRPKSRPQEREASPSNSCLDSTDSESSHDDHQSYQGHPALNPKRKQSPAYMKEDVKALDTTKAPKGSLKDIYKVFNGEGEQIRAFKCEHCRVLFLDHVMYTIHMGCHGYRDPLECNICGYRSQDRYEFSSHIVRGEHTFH
UniProt P43243: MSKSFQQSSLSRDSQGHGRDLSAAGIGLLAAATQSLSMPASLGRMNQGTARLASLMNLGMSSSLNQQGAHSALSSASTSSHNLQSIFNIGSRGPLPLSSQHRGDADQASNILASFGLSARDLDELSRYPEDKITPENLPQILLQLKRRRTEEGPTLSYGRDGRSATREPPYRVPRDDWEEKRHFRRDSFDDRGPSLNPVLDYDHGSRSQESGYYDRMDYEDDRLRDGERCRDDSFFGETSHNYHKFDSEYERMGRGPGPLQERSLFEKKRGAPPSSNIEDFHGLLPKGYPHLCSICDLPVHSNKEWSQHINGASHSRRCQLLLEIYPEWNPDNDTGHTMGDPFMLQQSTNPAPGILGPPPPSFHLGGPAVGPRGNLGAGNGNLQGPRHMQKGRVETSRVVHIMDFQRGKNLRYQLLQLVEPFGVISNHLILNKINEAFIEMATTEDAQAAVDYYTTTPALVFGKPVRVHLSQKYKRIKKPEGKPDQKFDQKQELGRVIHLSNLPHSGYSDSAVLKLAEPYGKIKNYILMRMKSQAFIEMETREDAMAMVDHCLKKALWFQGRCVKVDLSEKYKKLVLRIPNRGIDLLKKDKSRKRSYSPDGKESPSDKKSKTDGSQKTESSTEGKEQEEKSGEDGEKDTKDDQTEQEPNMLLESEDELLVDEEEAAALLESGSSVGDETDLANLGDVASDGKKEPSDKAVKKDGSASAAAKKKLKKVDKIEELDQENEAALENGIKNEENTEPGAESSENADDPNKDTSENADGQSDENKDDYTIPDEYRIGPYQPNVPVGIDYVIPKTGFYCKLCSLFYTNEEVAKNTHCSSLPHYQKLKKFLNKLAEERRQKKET
UniProt Q8IYT2: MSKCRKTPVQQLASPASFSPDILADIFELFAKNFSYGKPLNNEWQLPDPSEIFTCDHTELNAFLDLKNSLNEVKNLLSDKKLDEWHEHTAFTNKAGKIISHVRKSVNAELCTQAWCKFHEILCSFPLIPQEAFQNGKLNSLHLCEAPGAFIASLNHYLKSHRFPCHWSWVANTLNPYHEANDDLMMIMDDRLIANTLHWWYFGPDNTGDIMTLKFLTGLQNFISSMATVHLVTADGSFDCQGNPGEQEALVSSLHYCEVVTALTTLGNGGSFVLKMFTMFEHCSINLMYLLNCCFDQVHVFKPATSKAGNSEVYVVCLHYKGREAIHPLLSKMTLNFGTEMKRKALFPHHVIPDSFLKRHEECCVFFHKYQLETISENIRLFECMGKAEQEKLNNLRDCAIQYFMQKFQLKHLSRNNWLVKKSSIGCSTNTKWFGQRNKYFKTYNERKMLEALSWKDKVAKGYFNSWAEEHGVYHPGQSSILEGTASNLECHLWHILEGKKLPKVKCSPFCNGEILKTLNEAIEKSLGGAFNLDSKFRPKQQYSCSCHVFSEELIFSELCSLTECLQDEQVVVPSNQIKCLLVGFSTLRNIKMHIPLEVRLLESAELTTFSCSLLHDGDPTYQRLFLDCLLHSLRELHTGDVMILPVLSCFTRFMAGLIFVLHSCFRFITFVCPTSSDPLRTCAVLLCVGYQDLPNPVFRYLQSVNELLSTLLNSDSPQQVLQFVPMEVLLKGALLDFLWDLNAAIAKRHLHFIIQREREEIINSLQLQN
UniProt Q8NI27: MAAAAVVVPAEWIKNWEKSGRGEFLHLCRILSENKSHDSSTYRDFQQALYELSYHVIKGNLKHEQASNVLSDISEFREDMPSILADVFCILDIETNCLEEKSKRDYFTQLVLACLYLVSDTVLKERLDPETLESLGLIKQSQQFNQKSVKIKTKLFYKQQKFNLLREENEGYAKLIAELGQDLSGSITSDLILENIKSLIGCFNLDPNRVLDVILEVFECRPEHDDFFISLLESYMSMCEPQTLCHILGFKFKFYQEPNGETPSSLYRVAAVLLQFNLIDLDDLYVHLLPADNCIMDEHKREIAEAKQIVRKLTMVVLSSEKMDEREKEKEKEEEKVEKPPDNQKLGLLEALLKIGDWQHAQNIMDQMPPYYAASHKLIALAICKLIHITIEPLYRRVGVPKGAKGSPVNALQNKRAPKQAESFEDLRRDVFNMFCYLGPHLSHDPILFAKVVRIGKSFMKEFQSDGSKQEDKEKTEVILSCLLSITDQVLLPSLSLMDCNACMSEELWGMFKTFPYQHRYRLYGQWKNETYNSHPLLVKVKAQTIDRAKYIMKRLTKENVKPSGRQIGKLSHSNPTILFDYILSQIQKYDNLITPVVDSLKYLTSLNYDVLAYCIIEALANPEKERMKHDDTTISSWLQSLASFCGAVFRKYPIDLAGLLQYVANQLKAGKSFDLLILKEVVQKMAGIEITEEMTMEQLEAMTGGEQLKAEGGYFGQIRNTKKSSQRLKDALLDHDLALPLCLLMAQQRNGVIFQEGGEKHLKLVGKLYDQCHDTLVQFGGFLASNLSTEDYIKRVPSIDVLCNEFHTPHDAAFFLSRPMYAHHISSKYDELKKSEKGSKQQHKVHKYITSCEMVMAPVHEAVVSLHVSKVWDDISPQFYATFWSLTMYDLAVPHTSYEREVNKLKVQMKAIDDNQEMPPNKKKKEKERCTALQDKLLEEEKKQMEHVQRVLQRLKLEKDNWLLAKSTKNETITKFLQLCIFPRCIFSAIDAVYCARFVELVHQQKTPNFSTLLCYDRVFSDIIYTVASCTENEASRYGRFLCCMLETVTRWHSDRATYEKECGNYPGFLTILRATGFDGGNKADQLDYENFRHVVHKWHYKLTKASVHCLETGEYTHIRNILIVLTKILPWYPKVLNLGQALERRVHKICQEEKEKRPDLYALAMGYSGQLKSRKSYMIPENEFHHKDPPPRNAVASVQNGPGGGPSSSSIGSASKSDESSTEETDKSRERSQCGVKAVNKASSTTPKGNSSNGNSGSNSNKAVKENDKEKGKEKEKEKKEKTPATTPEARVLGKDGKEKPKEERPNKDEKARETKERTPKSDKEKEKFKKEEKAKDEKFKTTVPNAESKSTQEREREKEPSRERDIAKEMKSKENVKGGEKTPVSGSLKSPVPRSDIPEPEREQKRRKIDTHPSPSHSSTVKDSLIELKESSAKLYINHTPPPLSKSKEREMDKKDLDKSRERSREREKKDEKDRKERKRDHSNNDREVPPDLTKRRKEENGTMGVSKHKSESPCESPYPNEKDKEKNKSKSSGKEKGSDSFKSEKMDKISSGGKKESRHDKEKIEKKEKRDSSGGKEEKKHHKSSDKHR

Target	NP40-soluble protein abundance (concentration: 0.1mM)	NP40-soluble protein abundance (concentration: 0.5mM)	NP40-soluble protein abundance (concentration: 1mM)	NP40-soluble protein abundance (concentration: 2mM)	NP40-soluble protein abundance (concentration: 4mM)	NP40-soluble protein abundance (concentration: 6mM)	NP40-soluble protein abundance (concentration: 8mM)	NP40-soluble protein abundance (concentration: 10mM)
B7ZBK4 and related entries (UniProt Q92664)	1.02 ± 0.04	1.04 ± 0.048	1.02 ± 0.021	1.03 ± 0.035	1 ± 0.042	0.9904 ± 0.0034	0.989 ± 0.026	0.976 ± 0.053
D0EV57 and related entries (UniProt Q29718+Q29940+E9PIB1+Q8MH48+Q6DU44+Q5SRN5+D0EV57+P01889+P10321+P30505+P13746+P30499+P16188+P30493+Q29865+P30504+P30508+P30685+O19617+Q29963)	1.01 ± 0.014	1.02 ± 0.026	0.961 ± 0.026	0.9786 ± 0.0089	0.9485 ± 0.0059	0.977 ± 0.013	0.949 ± 0.022	0.96 ± 0.015
MYO1G (UniProt B0I1T2)	1.01 ± 0.013	1.92 ± 0.17	3.09 ± 0.27	3.32 ± 0.48	3.48 ± 0.58	3.19 ± 0.4	3.7 ± 0.64	3.52 ± 0.5
B1AJY7 and related entries (UniProt O75832)	0.972 ± 0.051	0.931 ± 0.085	1 ± 0.082	0.973 ± 0.031	0.955 ± 0.065	0.977 ± 0.076	0.947 ± 0.056	0.863 ± 0.043
C9JRD2 and related entries (UniProt P25686)	0.99 ± 0.052	0.951 ± 0.03	0.969 ± 0.038	0.956 ± 0.019	0.956 ± 0.022	0.971 ± 0.06	0.973 ± 0.016	0.977 ± 0.025
C9JLB7 and related entries (UniProt Q96HP4)	1.04 ± 0.085	1.14 ± 0.095	1.09 ± 0.083	1.1 ± 0.1	1.06 ± 0.075	1.12 ± 0.17	1.17 ± 0.14	1.05 ± 0.042
B1AKN5 and related entries (UniProt Q12857)	1.09 ± 0.072	1.06 ± 0.05	1.22 ± 0.072	1.08 ± 0.11	1.12 ± 0.081	1.21 ± 0.13	0.995 ± 0.072	1.13 ± 0.033
TMEM120B (UniProt A0PK00)	0.94 ± 0.026	0.993 ± 0.068	0.948 ± 0.058	1.05 ± 0.042	1.04 ± 0.09	0.894 ± 0.12	1.15 ± 0.13	1.13 ± 0.14
B4DWF2 and related entries (UniProt Q9UKS7)	0.986 ± 0.073	1.02 ± 0.046	1.02 ± 0.062	1.03 ± 0.072	1.04 ± 0.061	1.11 ± 0.089	1.1 ± 0.061	1.2 ± 0.066
A8MXP9 and related entries (UniProt P43243)	0.988 ± 0.013	1.06 ± 0.03	1.02 ± 0.042	1.03 ± 0.038	1 ± 0.026	1.05 ± 0.039	1 ± 0.029	1.03 ± 0.015
A0A0U1RRB3|Q8IYT2 (UniProt Q8IYT2)	1.05 ± 0.053	0.998 ± 0.035	–	–	–	–	–	–
B7ZBA0 and related entries (UniProt Q8NI27)	1.1 ± 0.075	1.4 ± 0.12	1.52 ± 0.091	1.62 ± 0.074	1.89 ± 0.076	2.09 ± 0.2	2.4 ± 0.17	2.4 ± 0.21
UniProt A0FGR8-2|H7BXI1 and related entries	1.04 ± 0.061	1.05 ± 0.032	1 ± 0.026	1.02 ± 0.025	1.02 ± 0.015	0.997 ± 0.052	1.02 ± 0.03	1.02 ± 0.047

Part of the list above, as labelled records:
A8MXP9 and related entries (UniProt P43243)
  NP40-soluble protein abundance (concentration: 0.1mM): 0.988 ± 0.013
  NP40-soluble protein abundance (concentration: 0.5mM): 1.06 ± 0.03
  NP40-soluble protein abundance (concentration: 1mM): 1.02 ± 0.042
  NP40-soluble protein abundance (concentration: 2mM): 1.03 ± 0.038
  NP40-soluble protein abundance (concentration: 4mM): 1 ± 0.026
  NP40-soluble protein abundance (concentration: 6mM): 1.05 ± 0.039
  NP40-soluble protein abundance (concentration: 8mM): 1 ± 0.029
  NP40-soluble protein abundance (concentration: 10mM): 1.03 ± 0.015
A0A0U1RRB3|Q8IYT2 (UniProt Q8IYT2)
  NP40-soluble protein abundance (concentration: 0.1mM): 1.05 ± 0.053
  NP40-soluble protein abundance (concentration: 0.5mM): 0.998 ± 0.035
